Results are given in words; binding and its absence hold for the method and conditions named. A result given as binding can be weak or reduced; the word gives no strength. Where a sequence is shown, tags or fusion partners need not be part of it.
Target: HaRxL10 fused to the LexA DNA binding domain (pGilda:HaRxL10) (Hyaloperonospora arabidopsidis)
Assay: two-hybrid

Row | Binder | binding
1 | JAZ4 fused to the B42 transcriptional activation domain (pB42AD:JAZ4) (protein, UniProt Q58G47 1-310) MERDFLGLGSKLSPITVKEETNEDSAPSRGMMDWSFSSKVGSGPQFLSFGTSQQETRVNTVNDHLLSSAAMDQNQRTYFSSLQEDRVFPGSSQQDQTTITVSMSEPNYINSFINHQHLGGSPIMAPPVSVFPAPTTIRSSSKPLPPQLTIFYAGSVLVYQDIAPEKAQAIMLLAGNGPHAKPVSQPKPQKLVHHSLPTTDPPTMPPSFLPSISYIVSETRSSGSNGVTGLGPTKTKASLASTRNNQTAAFSMAPTVGLPQTRKASLARFLEKRKERVINVSPYYVDNKSSIDCRTLMSECVSCPPAHHLH | binds
2 | JAZ9 fused to the B42 transcriptional activation domain (pB42AD:JAZ9) (protein, UniProt Q8W4J8 1-267) MERDFLGLSDKQYLSNNVKHEVNDDAVEERGLSTKAAREWGKSKVFATSSFMPSSDFQEAKAFPGAYQWGSVSAANVFRRCQFGGAFQNATPLLLGGSVPLPTHPSLVPRVASSGSSPQLTIFYGGTISVFNDISPDKAQAIMLCAGNGLKGETGDSKPVREAERMYGKQIHNTAATSSSSATHTDNFSRCRDTPVAATNAMSMIESFNAAPRNMIPSVPQARKASLARFLEKRKERLMSAMPYKKMLLDLSTGESSGMNYSSTSPT | binds
3 | JAZ10 fused to the B42 transcriptional activation domain (pB42AD:JAZ10) (protein, UniProt Q93ZM9 1-197) MSKATIELDFLGLEKKQTNNAPKPKFQKFLDRRRSFRDIQGAISKIDPEIIKSLLASTGNNSDSSAKSRSVPSTPREDQPQIPISPVHASLARSSTELVSGTVPMTIFYNGSVSVFQVSRNKAGEIMKVANEAASKKDESSMETDLSVILPTTLRPKLFGQNLEGDLPIARRKSLQRFLEKRKERLVSTSPYYPTSA | no binding
4 | Coronatine-insensitive 1 (COI1) in pB42AD (pB42AD:COI1) (protein, UniProt O04197 1-592) MEDPDIKRCKLSCVATVDDVIEQVMTYITDPKDRDSASLVCRRWFKIDSETREHVTMALCYTATPDRLSRRFPNLRSLKLKGKPRAAMFNLIPENWGGYVTPWVTEISNNLRQLKSVHFRRMIVSDLDLDRLAKARADDLETLKLDKCSGFTTDGLLSIVTHCRKIKTLLMEESSFSEKDGKWLHELAQHNTSLEVLNFYMTEFAKISPKDLETIARNCRSLVSVKVGDFEILELVGFFKAAANLEEFCGGSLNEDIGMPEKYMNLVFPRKLCRLGLSYMGPNEMPILFPFAAQIRKLDLLYALLETEDHCTLIQKCPNLEVLETRNVIGDRGLEVLAQYCKQLKRLRIERGADEQGMEDEEGLVSQRGLIALAQGCQELEYMAVYVSDITNESLESIGTYLKNLCDFRLVLLDREERITDLPLDNGVRSLLIGCKKLRRFAFYLRQGGLTDLGLSYIGQYSPNVRWMLLGYVGESDEGLMEFSRGCPNLQKLEMRGCCFSERAIAAAVTKLPSLRYLWVQGYRASMTGQDLMQMARPYWNIELIPSRRVPEVNQQGEIREMEHPAHILAYYSLAGQRTDCPTTVRVLKEPI | no binding
